According to patent US10189856B2 (Adverio Pharma GMBH, priority 2010, dated 2019):
For at least one compound, name, drawing or mass did not settle the structure.

System: human dermal fibroblasts
Assay: TGFbeta-induced collagen gene expression and hydroxyproline deposition in human dermal fibroblasts (Example E)
Assay type: cell-based
Conditions: result in words; human dermal fibroblasts in vitro
Procedure: The effects of the compound of formula 27 and vardenafil as stand alone and in combination were analyzed in vitro in human dermal fibroblasts in vitro.

## CCCc1nc(C)c2c(=O)[nH]c(-c3cc(S(=O)(=O)N4CCN(CC)CC4)ccc3OCC)nn12 [vardenafil, 2-(2-Ethoxy-5-(4-ethylpiperazin-1-yl-1-sulfonyl)phenyl)-5-methyl-7-propyl-3H-imidazo (5,1-f) (1,2,4)triazin-4-one, reference compound]
  TGFbeta-induced Collagen gene expression: significantly blocked
  TGFbeta-induced Hydroxyproline (HP) deposition: significantly blocked
